The supplement of paper PMC11006884
This is a selection; strong and weak results do not stand in their true shares.

Protein sequences, listed by entry. Tags and fused reporters are not part of them. Lines headed by an entry give the natural chain unless they say otherwise; changes in a name come on top.
UniProt Q96HC4: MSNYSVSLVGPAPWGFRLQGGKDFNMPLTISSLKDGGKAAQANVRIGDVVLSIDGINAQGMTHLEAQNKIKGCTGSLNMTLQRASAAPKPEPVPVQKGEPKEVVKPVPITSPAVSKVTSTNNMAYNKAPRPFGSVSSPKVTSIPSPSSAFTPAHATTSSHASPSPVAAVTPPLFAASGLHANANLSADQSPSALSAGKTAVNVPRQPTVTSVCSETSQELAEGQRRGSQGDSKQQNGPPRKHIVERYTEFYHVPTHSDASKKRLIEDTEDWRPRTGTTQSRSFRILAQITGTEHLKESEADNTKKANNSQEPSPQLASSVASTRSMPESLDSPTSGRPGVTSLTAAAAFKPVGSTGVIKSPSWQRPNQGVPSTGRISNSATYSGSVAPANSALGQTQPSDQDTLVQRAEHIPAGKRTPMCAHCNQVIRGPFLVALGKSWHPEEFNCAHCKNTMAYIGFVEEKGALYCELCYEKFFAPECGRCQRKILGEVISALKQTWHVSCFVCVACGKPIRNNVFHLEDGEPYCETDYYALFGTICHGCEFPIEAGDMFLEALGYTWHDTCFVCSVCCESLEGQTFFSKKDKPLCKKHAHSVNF
UniProt Q92616, whole entry, looked up: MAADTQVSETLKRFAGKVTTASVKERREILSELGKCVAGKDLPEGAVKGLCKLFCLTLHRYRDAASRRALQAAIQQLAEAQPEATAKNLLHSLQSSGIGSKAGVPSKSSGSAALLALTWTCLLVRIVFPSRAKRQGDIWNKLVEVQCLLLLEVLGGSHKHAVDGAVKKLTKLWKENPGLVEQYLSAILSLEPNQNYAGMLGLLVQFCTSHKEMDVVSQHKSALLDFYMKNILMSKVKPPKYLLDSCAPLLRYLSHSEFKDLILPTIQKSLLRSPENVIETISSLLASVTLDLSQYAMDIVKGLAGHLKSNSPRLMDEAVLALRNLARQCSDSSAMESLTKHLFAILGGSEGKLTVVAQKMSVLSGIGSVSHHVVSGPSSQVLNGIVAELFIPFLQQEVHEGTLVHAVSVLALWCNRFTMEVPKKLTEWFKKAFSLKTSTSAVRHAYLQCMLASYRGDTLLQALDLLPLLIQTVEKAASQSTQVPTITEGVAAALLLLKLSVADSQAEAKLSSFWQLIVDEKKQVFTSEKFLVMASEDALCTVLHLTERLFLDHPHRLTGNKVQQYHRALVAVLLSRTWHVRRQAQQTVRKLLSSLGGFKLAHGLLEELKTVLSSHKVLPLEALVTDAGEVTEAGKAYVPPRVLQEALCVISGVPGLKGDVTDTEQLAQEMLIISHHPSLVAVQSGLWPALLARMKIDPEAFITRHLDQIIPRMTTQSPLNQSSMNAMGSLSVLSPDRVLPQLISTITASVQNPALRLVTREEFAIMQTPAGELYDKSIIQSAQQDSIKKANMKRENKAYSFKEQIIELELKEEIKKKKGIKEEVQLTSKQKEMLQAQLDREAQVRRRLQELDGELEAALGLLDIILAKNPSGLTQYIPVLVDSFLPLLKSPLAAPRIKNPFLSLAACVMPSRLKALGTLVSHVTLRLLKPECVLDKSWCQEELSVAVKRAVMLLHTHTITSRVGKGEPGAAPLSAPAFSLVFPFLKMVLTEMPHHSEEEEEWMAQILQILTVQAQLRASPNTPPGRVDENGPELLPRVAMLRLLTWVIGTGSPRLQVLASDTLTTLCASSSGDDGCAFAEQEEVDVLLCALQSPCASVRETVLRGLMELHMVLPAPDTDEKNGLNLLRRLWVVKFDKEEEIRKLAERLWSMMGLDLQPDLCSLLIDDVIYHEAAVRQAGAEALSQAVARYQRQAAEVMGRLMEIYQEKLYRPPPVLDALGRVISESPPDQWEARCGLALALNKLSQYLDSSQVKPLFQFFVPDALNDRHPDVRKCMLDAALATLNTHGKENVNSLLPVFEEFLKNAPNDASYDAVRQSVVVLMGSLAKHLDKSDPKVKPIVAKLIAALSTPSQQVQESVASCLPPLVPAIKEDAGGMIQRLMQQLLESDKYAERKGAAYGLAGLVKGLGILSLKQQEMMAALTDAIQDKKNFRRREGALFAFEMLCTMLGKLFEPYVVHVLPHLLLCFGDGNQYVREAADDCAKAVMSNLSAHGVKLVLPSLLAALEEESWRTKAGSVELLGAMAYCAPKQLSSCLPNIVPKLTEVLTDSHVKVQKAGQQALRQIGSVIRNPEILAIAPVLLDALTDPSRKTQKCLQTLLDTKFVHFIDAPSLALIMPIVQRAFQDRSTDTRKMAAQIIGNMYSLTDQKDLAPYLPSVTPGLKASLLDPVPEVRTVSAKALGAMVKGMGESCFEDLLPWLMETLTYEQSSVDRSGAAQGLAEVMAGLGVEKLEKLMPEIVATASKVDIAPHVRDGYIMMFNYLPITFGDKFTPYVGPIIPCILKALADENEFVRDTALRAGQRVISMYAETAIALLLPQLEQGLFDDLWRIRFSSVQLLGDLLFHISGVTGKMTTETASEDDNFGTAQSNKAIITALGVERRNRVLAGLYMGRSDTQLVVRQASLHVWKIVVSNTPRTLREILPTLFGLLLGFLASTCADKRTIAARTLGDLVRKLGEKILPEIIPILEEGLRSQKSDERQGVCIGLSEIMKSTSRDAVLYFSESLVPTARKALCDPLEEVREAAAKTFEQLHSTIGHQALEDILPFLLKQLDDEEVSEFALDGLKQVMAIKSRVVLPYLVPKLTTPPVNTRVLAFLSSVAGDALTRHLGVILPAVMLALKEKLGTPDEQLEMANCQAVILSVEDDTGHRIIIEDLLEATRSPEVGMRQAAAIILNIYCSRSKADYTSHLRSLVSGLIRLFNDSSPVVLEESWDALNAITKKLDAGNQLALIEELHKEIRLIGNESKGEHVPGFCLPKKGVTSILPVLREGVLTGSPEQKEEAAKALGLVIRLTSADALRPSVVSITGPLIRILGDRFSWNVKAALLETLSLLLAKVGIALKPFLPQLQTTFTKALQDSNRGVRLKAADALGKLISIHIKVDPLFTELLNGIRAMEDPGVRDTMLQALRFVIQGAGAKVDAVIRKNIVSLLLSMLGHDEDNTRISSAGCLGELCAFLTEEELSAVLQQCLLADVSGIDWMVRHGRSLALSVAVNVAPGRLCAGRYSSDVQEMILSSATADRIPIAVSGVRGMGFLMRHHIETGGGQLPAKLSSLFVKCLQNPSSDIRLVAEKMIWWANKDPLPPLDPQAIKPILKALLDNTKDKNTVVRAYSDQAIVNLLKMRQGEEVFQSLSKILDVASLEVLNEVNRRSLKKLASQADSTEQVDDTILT
UniProt Q96EB6: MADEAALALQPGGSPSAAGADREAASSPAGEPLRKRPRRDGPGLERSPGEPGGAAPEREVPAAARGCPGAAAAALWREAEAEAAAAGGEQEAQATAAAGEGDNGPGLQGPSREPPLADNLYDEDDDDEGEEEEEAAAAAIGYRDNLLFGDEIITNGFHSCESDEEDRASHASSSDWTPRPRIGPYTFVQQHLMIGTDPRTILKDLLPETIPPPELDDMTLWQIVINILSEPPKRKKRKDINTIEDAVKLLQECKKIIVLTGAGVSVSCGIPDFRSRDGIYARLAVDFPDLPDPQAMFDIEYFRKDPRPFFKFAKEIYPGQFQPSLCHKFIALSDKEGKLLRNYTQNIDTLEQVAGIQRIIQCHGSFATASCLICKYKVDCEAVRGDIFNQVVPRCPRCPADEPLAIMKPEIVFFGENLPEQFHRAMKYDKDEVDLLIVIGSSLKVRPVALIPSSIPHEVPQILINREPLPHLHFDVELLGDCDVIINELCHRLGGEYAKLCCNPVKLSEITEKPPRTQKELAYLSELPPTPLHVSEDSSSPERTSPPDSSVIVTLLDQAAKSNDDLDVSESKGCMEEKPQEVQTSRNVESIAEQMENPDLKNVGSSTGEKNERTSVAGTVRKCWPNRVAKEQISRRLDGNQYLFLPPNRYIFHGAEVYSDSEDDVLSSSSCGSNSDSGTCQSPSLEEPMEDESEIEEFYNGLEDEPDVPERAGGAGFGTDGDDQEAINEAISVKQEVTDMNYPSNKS
UniProt Q92804: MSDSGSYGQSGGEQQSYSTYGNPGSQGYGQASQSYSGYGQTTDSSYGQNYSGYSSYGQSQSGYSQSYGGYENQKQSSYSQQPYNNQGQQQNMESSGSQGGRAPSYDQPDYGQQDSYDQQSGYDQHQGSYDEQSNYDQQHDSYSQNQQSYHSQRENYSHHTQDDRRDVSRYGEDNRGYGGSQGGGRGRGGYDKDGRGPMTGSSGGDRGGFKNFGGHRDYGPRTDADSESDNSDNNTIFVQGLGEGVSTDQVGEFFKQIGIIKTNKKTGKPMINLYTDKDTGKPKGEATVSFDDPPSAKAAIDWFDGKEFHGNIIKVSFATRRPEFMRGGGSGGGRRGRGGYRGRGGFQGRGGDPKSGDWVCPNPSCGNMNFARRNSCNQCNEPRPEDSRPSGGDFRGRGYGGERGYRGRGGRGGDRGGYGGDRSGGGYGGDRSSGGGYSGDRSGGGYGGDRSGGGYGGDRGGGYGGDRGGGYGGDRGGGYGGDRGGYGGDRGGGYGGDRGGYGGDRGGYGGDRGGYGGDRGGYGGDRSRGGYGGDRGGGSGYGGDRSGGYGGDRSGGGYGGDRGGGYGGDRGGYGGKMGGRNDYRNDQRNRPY
UniProt Q96B54: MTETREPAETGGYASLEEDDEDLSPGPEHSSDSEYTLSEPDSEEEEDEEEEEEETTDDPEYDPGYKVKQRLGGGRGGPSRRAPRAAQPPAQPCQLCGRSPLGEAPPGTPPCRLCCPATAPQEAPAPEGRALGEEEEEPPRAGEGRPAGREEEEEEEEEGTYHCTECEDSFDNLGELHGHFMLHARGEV
UniProt Q96C57: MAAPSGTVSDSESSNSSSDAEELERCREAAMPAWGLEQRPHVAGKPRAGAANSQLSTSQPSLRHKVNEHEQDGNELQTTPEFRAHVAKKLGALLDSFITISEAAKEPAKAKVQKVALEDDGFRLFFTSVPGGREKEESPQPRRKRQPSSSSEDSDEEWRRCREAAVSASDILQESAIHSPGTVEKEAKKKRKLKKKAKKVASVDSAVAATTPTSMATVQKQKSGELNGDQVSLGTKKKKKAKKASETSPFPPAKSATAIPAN
UniProt Q92878: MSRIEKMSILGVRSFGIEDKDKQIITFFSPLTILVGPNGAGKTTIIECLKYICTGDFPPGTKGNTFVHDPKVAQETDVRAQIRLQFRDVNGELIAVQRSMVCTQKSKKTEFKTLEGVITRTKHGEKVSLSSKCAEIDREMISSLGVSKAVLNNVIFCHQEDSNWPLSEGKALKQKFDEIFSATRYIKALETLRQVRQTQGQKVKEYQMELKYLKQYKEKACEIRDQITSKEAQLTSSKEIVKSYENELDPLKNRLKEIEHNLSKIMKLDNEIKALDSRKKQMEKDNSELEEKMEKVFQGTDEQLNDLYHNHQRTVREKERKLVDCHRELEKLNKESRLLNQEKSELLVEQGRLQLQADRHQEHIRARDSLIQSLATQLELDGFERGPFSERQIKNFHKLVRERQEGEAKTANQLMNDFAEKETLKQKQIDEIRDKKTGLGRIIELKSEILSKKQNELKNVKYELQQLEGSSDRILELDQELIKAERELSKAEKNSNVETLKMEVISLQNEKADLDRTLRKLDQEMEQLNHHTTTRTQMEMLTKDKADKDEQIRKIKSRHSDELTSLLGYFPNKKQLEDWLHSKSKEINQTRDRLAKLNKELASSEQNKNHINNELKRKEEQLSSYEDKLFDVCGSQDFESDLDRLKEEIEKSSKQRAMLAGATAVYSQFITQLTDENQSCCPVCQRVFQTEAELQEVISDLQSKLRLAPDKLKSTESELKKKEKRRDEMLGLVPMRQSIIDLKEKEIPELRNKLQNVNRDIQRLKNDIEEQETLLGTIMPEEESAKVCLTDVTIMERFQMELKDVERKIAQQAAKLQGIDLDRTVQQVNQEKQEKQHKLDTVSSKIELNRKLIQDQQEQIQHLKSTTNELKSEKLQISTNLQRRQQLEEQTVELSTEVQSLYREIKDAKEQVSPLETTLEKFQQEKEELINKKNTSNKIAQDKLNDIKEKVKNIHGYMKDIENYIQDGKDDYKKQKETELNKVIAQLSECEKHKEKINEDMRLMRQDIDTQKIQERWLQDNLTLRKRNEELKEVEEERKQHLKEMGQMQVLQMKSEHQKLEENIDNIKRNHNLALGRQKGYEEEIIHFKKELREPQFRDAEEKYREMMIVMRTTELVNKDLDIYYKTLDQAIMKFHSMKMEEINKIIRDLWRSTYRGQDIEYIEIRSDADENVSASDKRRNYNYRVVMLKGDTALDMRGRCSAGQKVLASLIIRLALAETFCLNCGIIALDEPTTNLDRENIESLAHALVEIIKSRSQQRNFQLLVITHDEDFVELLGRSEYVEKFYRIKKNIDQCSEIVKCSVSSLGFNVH

What follows are targets tested with COC(=O)C#Cc1ccccc1 [methyl 3-phenylpropiolate] (assay: log2 ratio of iodoacetamide-alkyne labeling of the cysteine site, DMSO over compound (competition); higher = stronger covalent engagement of the cysteine by the compound, active = 1 or more). Conditions: 500 µM; treatment time 1 h; system: HEK293T cell lysate.
Outline: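 Electrophile (500 µM) or vehicle was added to HEK293T lysate (2 mg/mL) for 1 h at ambient temperature before iodoacetamide alkyne labelling (1 h) and click coupling to sCIP-TMT reagents. After pooling, overnight trypsin digestion at 37 °C, streptavidin enrichment and acid elution, peptides were measured by Orbitrap Eclipse LC-MS/MS with FAIMS and quantified in FragPipe. Each cysteine's log2 competition ratio compares mean control-channel with mean compound-channel reporter intensity, control over compound. Data came from duplicate channels across three replicates, excluding cysteines quantified in only one replicate.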

log2 ratio of iodoacetamide-alkyne labeling, inactive:
GBF1 C613 (UniProt Q92538) 0.825
PTCD3 C642 (UniProt Q96EY7) 0.535
PDLIM5 C449 (UniProt Q96HC4) 0.0755
USP7 C223 (UniProt Q93009) 0.27
UniProt Q96AX9_C323 0.768
UniProt Q92616_C36 0.339
Sirt1 C574 (UniProt Q96EB6) 0.175
RREB1 C648 (UniProt Q92766) 0.143
TAF15 C365 (UniProt Q92804) -0.216
UniProt Q96EY5_C231 0.938
PDLIM5 C213 (UniProt Q96HC4) 0.457
ZNF428 C115 (UniProt Q96B54) 0.286
MRPL38 C290 (UniProt Q96DV4) -0.134
UniProt Q96C57_C161 0.107
RAD50 C157 (UniProt Q92878) 0.00476
